Measured values published in the supplement of paper PMC11732987, “Enantioselective OTUD7B fragment discovery through chemoproteomics screening and high-throughput optimisation” (Communications Chemistry, 2025).
The list shows a part of the results. The data scatter; read single values as rough.

Protein sequences, listed by entry. Tags and fused reporters are not part of them. Lines headed by an entry give the natural chain unless they say otherwise; changes in a name come on top.
UniProt Q7Z4H3: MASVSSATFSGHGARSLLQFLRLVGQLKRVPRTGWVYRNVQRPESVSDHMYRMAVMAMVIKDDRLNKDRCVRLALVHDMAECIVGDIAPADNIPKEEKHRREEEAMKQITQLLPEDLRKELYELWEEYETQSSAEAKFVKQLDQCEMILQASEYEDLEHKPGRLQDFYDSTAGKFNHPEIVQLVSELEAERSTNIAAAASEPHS

The compounds below were run against T1, HDDC2 C82 (UniProt Q7Z4H3) (assay: log2 mean competition ratio of IA-DTB cysteine labelling (DMSO/compound) (log2 ratio); higher = stronger cysteine engagement by compound). Conditions: 50 µM; treatment time: 4 h; cell line lysate: HEK293T.
T1 sequence (whole entry): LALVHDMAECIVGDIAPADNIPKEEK
Experimental: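 IA-DTB competitive cysteine chemoproteomics in HEK293T RIPA lysate. Lysates were treated with compound 29 or 30 at 50 or 200 µM for 4 h, then IA-DTB (500 µM, 1 h), trypsin-digested, NeutrAvidin-enriched and analysed by diaPASEF. Competition ratio = intensity DMSO / intensity compound (n=4 treated, n=64 DMSO); binding: mean log2 CR ≥ 1 and p ≤ 0.05 plus QC filters. Target is the cysteine site.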
For `O=C(CCl)N[C@H]1CCCc2ccccc21`, the “log2 mean competition ratio” value was -0.153. `O=C(CCl)N[C@@H]1CCCc2ccccc21` was tested, and the “log2 mean competition ratio” value was -0.355.

Same assay, conditions: 200 µM; treatment time: 4 h; cell line lysate: HEK293T
For `O=C(CCl)N[C@H]1CCCc2ccccc21`, the “log2 mean competition ratio” value was -0.124. For `O=C(CCl)N[C@@H]1CCCc2ccccc21`, the “log2 mean competition ratio” value was 0.115.
